In PMC9124206:
These are yes or no findings as the source states them, for the method shown. Binding seen in cells or lysates may run through a third protein. Some results given as binding are weak or reduced against the parent protein; the word gives no strength.

Sequences of proteins named here, by UniProt entry; tags and fusion partners are left off.
UniProt Q15910: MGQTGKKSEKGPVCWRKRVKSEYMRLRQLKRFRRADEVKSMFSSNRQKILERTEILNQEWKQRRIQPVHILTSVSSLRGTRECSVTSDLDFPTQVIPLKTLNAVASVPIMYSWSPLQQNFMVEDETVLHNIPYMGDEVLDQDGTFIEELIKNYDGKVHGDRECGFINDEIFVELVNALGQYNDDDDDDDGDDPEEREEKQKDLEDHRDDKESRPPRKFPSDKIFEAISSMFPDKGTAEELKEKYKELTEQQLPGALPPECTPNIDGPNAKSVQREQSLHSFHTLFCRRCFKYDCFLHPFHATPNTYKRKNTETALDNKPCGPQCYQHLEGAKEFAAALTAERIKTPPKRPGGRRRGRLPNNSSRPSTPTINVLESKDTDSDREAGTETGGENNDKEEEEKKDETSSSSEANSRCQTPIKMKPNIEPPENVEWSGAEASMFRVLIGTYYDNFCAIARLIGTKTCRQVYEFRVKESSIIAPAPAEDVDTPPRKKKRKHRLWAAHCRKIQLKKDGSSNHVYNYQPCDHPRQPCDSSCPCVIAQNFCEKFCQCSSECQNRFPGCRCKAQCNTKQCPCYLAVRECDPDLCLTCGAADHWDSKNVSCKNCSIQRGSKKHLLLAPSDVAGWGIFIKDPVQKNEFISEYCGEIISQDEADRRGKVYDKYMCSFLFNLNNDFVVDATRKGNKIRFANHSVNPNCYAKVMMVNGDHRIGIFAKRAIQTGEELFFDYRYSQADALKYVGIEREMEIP
UniProt Q86YI8: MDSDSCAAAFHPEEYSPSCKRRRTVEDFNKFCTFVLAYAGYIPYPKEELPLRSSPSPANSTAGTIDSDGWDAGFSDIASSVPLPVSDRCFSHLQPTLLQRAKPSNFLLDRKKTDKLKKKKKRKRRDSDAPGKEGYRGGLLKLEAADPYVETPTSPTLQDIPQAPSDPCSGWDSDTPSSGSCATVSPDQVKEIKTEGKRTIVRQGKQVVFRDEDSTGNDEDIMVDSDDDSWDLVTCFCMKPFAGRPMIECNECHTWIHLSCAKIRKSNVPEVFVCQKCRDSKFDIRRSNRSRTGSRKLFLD

Target: EZH2, a core subunit of the polycomb repressive complex 2 (PRC2) (human (endogenous in Panc-1)) (UniProt Q15910)
Assay: co-IP; endogenous co-immunoprecipitation from Panc1 nuclear extract; anti-PHF13 IP or anti-EZH2 IP, anti-IgG IP as control; western blot

binding: binds
Substance: PHD finger protein 13 (PHF13) (from UniProt Q86YI8 1-300)
